Screening data

Source: PubChem BioAssay AID1345084 (NCATS, 2018).

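Living-cell ATP in ovarian and cervical tumor lines is read as light output two days after treatment, as a measure of cell killing. Each compound was tested at five concentrations, including 0.46, 2.3 and 57.5 µM as the top dose. The number is the fitted AC50 potency, and a lower value means stronger cell killing. Calls follow an activity score built from curve class and fitted AC50: 40 to 100 is active, 1 to 39 is inconclusive, and 0 is inactive.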

Values are in µM. All entries here are filed as inconclusive. Only part of the assay is shown, chiefly results filed as inconclusive. A potency from a partial, single-point or poor curve is only a rough figure. Activity scores are not listed here.

With CC(=O)OC[C@]12C[C@H](OC(=O)CC(C)C)C(C)=C[C@H]1O[C@@H]1[C@H](O)[C@@H](OC(C)=O)[C@@]2(C)[C@@]12CO2 [C33A] the assay gave fitted potency 0.1413 µM (cytotoxic, full curve, poor fit). For C=C1C[C@]23C[C@H]1CC[C@H]2[C@@]12CC[C@H](O)[C@@](C)(C(=O)O1)[C@H]2[C@@H]3C(=O)O [CAOV3] the result was fitted potency 0.7079 µM (cytotoxic, single point). Result for CC(N)C12CC3CC(CC(C3)C1)C2 (configuration not stated) [OV90] was fitted potency 39.81 µM (cytotoxic, single point). CN(C)c1cccc(Oc2cnc(Nc3cccc(O)c3)nc2)c1 [Es-2] read fitted potency 5.623 µM (cytotoxic, single point).

With CN(C)c1cccc(Oc2cnc(Nc3cccc(O)c3)nc2)c1 [CASKI] the assay gave fitted potency 0.7943 µM (cytotoxic, partial curve, poor fit). ClC1=C(Cl)[C@]2(Cl)[C@@H]3[C@@H]4C[C@@H]([C@H]5O[C@@H]45)[C@@H]3[C@@]1(Cl)C2(Cl)Cl [CAOV3] read fitted potency 70.79 µM (cytotoxic, single point). For C[C@]12CC[C@@H]3c4ccc(O)cc4CC[C@H]3[C@@H]1C[C@@H](O)[C@@H]2O [PA-1] the result was fitted potency 28.18 µM (cytotoxic, partial curve, poor fit). CNCCC(Oc1ccc(C(F)(F)F)cc1)c1ccccc1 (configuration not stated) [HeLa] read fitted potency 35.48 µM (cytotoxic, single point).

CNCCC(Oc1ccc(C(F)(F)F)cc1)c1ccccc1 (configuration not stated) [C33A] read fitted potency 39.81 µM (cytotoxic, single point). CNCCC(Oc1ccc(C(F)(F)F)cc1)c1ccccc1 (configuration not stated) [CAOV3] gave fitted potency 28.18 µM (cytotoxic, single point). CNCCC(Oc1ccc(C(F)(F)F)cc1)c1ccccc1 (configuration not stated) [CASKI] gave fitted potency 39.81 µM (cytotoxic, single point). Result for CNCCC(Oc1ccc(C(F)(F)F)cc1)c1ccccc1 (configuration not stated) [Es-2] was fitted potency 39.81 µM (cytotoxic, single point).

CN(C)CCCN1c2ccccc2Sc2ccc(C(F)(F)F)cc21 [C33A] read fitted potency 35.48 µM (cytotoxic, single point). For CN(C)CCCN1c2ccccc2Sc2ccc(C(F)(F)F)cc21 [Es-2] the result was fitted potency 35.48 µM (cytotoxic, single point). Result for CN(C)CCCN1c2ccccc2Sc2ccc(C(F)(F)F)cc21 [CASKI] was fitted potency 39.81 µM (cytotoxic, single point). For CO[C@@H]1C[C@H](O[C@H]2CC[C@@]3(C)C(CCC4C3CC[C@]3(C)[C@@H](C5=CC(=O)OC5)[C@@H](OC(C)=O)CC43O)C2)O[C@H](C)[C@@H]1O[C@H]1O[C@H](CO[C@@H]2O[C@H](CO)[C@@H](O)[C@H](O)[C@H]2O)[C@@H](O)[C@H](O)[C@H]1O (some centres not stated) [OV90] the result was fitted potency 3.548 µM (cytotoxic, partial curve, poor fit).

Repeated from the top, 2 entries:

{"compound": "CC(=O)OC[C@]12C[C@H](OC(=O)CC(C)C)C(C)=C[C@H]1O[C@@H]1[C@H](O)[C@@H](OC(C)=O)[C@@]2(C)[C@@]12CO2", "tested on / at": "C33A", "fitted potency (µM)": "0.1413", "curve as filed": "cytotoxic, full curve, poor fit"}
{"compound": "C=C1C[C@]23C[C@H]1CC[C@H]2[C@@]12CC[C@H](O)[C@@](C)(C(=O)O1)[C@H]2[C@@H]3C(=O)O", "tested on / at": "CAOV3", "fitted potency (µM)": "0.7079", "curve as filed": "cytotoxic, single point"}